End groups of sequences in plain letters are not given here.
Experiment: peptide made by a vendor (Fmoc solid-phase peptide synthesis)
Conditions: whole synthesis, high performance liquid chromatography; composition by mass spectrometry

HADGTFISDYSTILDNLAARDFINWLIQTKITD
final HPLC purity: 95.30%

— US12617831B2 (UNIVERSITE D'ANGERS, priority 2019, dated 2026)
